Laboratory results: the supplement of paper PMC7666118
Some of the results follow.

Chains of the proteins cited; added tags and fusions are not shown. Lines headed by an entry give the natural chain unless they say otherwise; changes in a name come on top.
UniProt Q92889: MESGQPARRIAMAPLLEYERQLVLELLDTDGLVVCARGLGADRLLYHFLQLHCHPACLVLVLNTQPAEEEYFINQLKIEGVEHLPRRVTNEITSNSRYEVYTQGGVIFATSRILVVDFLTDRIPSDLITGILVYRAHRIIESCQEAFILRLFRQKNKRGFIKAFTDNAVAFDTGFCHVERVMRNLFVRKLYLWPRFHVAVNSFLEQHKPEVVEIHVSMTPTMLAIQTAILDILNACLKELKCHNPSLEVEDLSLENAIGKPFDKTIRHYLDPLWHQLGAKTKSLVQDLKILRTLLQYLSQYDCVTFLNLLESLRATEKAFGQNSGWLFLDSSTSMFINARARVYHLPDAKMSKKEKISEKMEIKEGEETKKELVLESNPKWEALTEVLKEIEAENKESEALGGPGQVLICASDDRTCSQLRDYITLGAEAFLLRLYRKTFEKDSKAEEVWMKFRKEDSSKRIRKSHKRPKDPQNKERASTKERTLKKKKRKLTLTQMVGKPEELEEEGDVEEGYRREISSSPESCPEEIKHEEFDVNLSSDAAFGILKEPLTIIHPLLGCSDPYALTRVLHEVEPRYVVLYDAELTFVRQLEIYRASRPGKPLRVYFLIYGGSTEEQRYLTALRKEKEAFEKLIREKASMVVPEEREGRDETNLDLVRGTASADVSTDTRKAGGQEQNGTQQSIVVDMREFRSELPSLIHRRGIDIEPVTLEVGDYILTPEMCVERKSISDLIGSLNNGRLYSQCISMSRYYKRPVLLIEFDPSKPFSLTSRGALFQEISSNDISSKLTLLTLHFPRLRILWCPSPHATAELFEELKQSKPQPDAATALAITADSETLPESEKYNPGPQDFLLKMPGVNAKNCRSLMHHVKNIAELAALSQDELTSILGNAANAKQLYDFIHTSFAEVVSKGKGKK
UniProt Q8N3D4: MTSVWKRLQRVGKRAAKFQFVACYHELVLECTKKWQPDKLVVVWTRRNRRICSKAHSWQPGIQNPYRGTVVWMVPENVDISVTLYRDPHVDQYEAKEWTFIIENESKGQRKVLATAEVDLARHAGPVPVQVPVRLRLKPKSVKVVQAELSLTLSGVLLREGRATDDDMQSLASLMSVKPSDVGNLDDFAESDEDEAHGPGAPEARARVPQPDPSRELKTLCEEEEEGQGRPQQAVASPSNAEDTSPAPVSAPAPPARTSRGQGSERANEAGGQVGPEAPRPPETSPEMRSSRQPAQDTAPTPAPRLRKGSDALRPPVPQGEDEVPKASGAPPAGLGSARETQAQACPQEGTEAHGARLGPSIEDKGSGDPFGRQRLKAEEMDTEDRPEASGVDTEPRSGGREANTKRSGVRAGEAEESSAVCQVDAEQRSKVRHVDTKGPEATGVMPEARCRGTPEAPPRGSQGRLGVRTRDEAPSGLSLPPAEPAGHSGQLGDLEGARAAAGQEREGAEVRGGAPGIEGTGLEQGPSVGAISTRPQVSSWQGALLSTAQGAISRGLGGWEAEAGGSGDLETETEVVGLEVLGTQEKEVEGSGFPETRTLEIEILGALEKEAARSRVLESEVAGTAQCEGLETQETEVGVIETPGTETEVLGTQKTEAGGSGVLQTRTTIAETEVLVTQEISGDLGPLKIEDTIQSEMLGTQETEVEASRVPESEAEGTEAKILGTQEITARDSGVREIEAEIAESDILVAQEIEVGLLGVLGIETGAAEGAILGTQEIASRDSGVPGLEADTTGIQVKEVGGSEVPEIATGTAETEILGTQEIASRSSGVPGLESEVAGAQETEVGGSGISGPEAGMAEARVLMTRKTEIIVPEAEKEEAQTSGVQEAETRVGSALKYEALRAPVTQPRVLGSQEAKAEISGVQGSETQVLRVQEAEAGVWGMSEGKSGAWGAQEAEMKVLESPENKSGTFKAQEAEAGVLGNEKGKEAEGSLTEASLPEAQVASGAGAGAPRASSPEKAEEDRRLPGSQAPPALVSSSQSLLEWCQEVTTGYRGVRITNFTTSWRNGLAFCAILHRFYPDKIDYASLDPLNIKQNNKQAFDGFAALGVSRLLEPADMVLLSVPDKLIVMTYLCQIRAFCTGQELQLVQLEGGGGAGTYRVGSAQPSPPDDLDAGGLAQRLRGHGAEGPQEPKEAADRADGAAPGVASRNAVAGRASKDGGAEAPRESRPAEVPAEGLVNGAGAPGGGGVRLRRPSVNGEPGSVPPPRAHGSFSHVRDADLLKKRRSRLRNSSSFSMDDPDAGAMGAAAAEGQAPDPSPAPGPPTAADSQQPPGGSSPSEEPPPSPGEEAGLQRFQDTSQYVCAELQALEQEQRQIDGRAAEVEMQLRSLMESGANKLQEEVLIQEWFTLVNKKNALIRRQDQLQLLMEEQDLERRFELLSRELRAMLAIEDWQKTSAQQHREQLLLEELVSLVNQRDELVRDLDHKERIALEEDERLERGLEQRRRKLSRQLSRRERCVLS
UniProt Q9NZJ0: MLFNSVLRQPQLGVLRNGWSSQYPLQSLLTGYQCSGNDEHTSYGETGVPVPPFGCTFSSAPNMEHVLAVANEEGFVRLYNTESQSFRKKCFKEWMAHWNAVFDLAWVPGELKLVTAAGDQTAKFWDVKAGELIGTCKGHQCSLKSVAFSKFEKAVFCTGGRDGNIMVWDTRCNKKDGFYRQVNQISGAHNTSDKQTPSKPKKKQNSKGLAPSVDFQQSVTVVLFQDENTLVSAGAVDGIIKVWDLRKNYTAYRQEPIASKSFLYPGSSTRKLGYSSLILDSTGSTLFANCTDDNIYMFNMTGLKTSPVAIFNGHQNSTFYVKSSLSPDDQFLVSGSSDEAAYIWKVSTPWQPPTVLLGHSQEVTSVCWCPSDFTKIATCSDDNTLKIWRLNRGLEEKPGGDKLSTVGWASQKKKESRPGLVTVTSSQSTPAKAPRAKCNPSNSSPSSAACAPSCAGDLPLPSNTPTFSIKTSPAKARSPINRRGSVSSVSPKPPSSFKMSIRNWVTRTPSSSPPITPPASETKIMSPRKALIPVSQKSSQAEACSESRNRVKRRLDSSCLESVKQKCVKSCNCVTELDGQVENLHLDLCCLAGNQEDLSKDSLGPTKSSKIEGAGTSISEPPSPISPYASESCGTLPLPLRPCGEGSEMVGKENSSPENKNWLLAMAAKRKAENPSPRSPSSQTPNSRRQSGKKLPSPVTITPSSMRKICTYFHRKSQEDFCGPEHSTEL
UniProt Q8N8S7: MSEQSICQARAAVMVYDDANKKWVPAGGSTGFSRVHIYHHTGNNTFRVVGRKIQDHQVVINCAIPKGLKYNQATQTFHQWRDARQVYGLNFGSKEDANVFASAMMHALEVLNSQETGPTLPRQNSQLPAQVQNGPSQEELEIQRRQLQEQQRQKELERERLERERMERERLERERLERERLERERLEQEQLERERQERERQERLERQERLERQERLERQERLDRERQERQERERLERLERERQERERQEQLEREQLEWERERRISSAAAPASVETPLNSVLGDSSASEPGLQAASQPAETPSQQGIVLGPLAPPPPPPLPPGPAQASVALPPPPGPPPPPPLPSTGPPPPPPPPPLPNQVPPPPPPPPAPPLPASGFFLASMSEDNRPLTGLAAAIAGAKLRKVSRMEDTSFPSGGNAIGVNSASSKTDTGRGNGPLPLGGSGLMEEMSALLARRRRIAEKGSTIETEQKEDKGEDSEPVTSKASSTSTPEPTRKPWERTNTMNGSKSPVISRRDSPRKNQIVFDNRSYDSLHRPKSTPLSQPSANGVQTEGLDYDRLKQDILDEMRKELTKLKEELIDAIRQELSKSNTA
UniProt Q15029: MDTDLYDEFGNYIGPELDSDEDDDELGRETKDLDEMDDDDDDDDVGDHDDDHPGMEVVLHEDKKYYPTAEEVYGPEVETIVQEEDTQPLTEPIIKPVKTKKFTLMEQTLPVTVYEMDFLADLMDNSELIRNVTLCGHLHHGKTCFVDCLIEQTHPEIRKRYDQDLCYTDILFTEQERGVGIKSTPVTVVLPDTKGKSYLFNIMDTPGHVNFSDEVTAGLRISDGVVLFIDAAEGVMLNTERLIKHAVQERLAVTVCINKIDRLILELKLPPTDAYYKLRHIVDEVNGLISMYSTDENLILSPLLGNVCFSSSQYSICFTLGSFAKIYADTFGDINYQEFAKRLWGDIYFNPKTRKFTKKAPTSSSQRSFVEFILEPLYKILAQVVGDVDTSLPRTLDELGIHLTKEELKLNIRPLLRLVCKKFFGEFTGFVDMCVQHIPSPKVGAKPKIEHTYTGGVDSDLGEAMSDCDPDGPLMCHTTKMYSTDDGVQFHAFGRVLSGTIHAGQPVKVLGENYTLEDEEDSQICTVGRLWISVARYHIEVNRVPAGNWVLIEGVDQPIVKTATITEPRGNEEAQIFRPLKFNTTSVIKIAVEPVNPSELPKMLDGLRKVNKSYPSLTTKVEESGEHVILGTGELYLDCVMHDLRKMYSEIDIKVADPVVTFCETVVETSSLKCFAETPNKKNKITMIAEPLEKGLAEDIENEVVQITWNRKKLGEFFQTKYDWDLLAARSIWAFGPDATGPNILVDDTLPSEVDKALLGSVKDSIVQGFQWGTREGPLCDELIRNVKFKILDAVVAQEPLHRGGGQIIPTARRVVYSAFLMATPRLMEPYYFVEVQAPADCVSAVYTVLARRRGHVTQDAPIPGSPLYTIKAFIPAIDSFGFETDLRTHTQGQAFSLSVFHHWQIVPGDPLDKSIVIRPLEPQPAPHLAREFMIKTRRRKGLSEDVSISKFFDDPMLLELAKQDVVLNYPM
UniProt Q8N9N8: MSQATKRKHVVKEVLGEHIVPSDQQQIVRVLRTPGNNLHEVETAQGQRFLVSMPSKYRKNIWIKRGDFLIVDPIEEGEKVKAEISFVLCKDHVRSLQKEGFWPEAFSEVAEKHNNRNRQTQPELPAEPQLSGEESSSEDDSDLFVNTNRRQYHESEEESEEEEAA
UniProt P55010, whole entry: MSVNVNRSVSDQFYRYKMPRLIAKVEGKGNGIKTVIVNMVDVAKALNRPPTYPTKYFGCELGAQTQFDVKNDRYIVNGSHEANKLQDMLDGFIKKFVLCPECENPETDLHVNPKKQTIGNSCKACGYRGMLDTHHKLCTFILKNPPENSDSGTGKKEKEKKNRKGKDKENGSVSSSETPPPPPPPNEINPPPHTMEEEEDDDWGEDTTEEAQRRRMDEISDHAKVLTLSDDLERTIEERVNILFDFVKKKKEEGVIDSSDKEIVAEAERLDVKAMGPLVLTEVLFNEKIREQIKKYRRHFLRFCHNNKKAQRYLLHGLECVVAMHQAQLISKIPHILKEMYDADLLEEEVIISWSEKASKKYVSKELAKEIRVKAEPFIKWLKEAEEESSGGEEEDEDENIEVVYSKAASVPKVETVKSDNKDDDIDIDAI
UniProt Q8IUD2: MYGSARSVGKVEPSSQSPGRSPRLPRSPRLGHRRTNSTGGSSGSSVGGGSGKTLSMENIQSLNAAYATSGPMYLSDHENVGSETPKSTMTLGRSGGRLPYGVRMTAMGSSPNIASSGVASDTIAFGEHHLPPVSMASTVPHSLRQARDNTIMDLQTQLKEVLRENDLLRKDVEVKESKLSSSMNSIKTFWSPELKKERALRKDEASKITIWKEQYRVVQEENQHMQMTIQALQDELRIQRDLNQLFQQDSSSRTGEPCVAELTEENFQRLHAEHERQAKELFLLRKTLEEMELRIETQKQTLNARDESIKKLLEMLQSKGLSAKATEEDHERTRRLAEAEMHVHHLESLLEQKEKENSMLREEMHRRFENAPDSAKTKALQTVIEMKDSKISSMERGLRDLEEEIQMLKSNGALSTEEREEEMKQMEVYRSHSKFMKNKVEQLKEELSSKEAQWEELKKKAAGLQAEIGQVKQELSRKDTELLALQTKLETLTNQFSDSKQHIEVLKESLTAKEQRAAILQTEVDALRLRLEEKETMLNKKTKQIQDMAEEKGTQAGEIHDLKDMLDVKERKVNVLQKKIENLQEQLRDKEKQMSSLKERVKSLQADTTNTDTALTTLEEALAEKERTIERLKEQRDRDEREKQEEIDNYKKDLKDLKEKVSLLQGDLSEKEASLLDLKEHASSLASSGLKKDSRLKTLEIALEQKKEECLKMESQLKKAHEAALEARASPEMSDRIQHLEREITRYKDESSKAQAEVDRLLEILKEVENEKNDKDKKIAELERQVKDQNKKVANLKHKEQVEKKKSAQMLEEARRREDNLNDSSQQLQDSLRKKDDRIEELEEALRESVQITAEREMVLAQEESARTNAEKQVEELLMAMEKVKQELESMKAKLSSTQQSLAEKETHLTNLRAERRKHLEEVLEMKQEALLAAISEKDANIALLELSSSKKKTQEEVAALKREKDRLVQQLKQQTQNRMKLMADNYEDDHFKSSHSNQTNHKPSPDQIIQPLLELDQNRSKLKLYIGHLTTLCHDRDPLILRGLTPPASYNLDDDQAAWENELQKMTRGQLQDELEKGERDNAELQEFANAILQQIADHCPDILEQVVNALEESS
UniProt Q9H098: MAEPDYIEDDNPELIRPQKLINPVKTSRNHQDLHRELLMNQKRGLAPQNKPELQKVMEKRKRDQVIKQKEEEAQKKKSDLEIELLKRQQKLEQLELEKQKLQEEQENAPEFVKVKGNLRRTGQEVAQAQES

compound: COc1ccc(Cn2ccc3cc(C)c(C(=O)NO)cc32)cc1; assay: dose-dependent thermal stabilisation call (2D-TPP, DLPTP, 10% FDR) (binary (1 = stabilised)); higher = stabilised by the compound; conditions: system: HL-60 intact cells; concentration range 0.04-10 µM
Procedure: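 2D thermal proteome profiling in intact HL-60 cells treated with BRD-3811 (0, 0.04, 0.29, 2, 10 uM) for 90 min at 37 C, then heated 3 min at one of 12 temperatures (42-63.9 C). Soluble protein was quantified by TMT10 MS. The value is the DLPTP call of the paper: dose-dependent thermal stabilisation over all temperatures at 10% FDR (F-test of a dose-response against a flat model); one experiment, one call per tested protein.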

Row | Target | dose-dependent thermal stabilisation call
1 | EIF2S3 (UniProt P41091) | inactive: 0
2 | EIF2C3 (UniProt Q9H9G7) | inactive: 0
3 | FAM108B1 (UniProt Q5VST6) | inactive: 0
4 | EBNA1BP2 (UniProt Q99848) | inactive: 0
5 | EIF3D (UniProt O15371) | inactive: 0
6 | FAM46C (UniProt Q5VWP2) | inactive: 0
7 | FAM18B2 (UniProt Q96ET8) | inactive: 0
8 | DTNBP1 (UniProt Q96EV8) | inactive: 0
9 | ERCC4 (UniProt Q92889) | inactive: 0
10 | FAF2 (UniProt Q96CS3) | inactive: 0
11 | FADS2 (UniProt O95864) | inactive: 0
12 | EHBP1L1 (UniProt Q8N3D4) | inactive: 0
13 | ERCC6L (UniProt Q2NKX8) | inactive: 0
14 | EMD (UniProt P50402) | inactive: 0
15 | DUS3L (UniProt Q96G46) | inactive: 0
16 | EPS15 (UniProt P42566) | inactive: 0
17 | ELL (UniProt P55199) | inactive: 0
18 | ELP2 (UniProt Q6IA86) | inactive: 0
19 | FAM118B (UniProt Q9BPY3) | inactive: 0
20 | FAM129A (UniProt Q9BZQ8) | inactive: 0

Row | Target | dose-dependent thermal stabilisation call
21 | DTL (UniProt Q9NZJ0) | inactive: 0
22 | ENAH (UniProt Q8N8S7) | inactive: 0
23 | EXOC2 (UniProt Q96KP1) | inactive: 0
24 | EP300 (UniProt Q09472) | inactive: 0
25 | ELMO2 (UniProt Q96JJ3) | inactive: 0
26 | EFTUD2 (UniProt Q15029) | active: 1
27 | EXOSC10 (UniProt Q01780) | inactive: 0
28 | E2F3 (UniProt O00716) | inactive: 0
29 | DTD1 (UniProt Q8TEA8) | inactive: 0
30 | EIF1AD (UniProt Q8N9N8) | inactive: 0
31 | ENPP4 (UniProt Q9Y6X5) | inactive: 0
32 | DUT (UniProt P33316) | inactive: 0
33 | DYRK1A (UniProt Q13627) | inactive: 0
34 | EIF5 (UniProt P55010) | inactive: 0
35 | FAM173A (UniProt Q9BQD7) | inactive: 0
36 | ERC1 (UniProt Q8IUD2) | inactive: 0
37 | EGLN1 (UniProt Q9GZT9) | inactive: 0
38 | FAM107B (UniProt Q9H098) | inactive: 0
39 | ELAC2 (UniProt Q9BQ52) | inactive: 0
40 | DYNC1H1 (UniProt Q14204) | inactive: 0

Quoted from the listing:
dose-dependent thermal stabilisation call with EP300 (UniProt Q09472) reads inactive: 0
dose-dependent thermal stabilisation call with ENAH (UniProt Q8N8S7) reads inactive: 0
